According to paper PMC8836581:
These are yes or no findings as the source states them, for the method shown.

Chains of the proteins cited; added tags and fusions are not shown. Residues count along the entry.
UniProt P02768, residues 25-609: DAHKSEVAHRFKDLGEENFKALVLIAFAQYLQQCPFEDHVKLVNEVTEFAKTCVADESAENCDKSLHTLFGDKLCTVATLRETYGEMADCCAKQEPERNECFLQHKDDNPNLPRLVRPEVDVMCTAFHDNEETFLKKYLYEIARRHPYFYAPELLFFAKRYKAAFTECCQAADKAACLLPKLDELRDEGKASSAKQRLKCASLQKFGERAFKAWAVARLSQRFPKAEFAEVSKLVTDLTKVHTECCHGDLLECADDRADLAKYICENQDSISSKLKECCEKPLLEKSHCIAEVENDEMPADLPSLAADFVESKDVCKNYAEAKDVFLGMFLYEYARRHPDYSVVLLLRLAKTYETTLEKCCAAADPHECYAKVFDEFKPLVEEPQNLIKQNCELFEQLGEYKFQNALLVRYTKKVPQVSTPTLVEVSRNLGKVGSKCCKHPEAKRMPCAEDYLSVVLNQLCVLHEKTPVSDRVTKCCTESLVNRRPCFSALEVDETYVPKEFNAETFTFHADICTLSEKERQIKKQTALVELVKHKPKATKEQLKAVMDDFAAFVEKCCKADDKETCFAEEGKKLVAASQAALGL

Biological target: T1, TDP-43 peptide 17 (aa 310–329) (UniProt Q13148)
T1 sequence (peptide): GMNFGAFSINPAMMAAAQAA
Assay: ELISA; synthetic peptides (5 µg/mL in PBS, 10 mM EDTA) coupled through cysteine to maleimide-activated microplate wells, blocked with L-cysteine; 0.1 µg/mL recombinant protein added 1 h at 37 °C; biotinylated detection antibody, streptavidin-HRP, TMB, absorbance at 450 nm; both purified

binding: no binding (tested: 0.1 µg/mL)
Substance: recombinant albumin (from UniProt P02768 25-609)
